Results are given in words; binding and its absence hold for the method and conditions named. In cells and extracts the contact can be indirect.
Target: p53 (UniProt P04637)
Experiment: co-IP; only mentioned in the discussion; no cells, antibodies, conditions or figure given

binding: no binding
B1: Transketolase (enzyme, UniProt P29401 1-623)
chain: MESYHKPDQQKLQALKDTANRLRISSIQATTAAGSGHPTSCCSAAEIMAVLFFHTMRYKSQDPRNPHNDRFVLSKGHAAPILYAVWAEAGFLAEAELLNLRKISSDLDGHPVPKQAFTDVATGSLGQGLGAACGMAYTGKYFDKASYRVYCLLGDGELSEGSVWEAMAFASIYKLDNLVAILDINRLGQSDPAPLQHQMDIYQKRCEAFGWHAIIVDGHSVEELCKAFGQAKHQPTAIIAKTFKGRGITGVEDKESWHGKPLPKNMAEQIIQEIYSQIQSKKKILATPPQEDAPSVDIANIRMPSLPSYKVGDKIATRKAYGQALAKLGHASDRIIALDGDTKNSTFSEIFKKEHPDRFIECYIAEQNMVSIAVGCATRNRTVPFCSTFAAFFTRAFDQIRMAAISESNINLCGSHCGVSIGEDGPSQMALEDLAMFRSVPTSTVFYPSDGVATEKAVELAANTKGICFIRTSRPENAIIYNNNEDFQVGQAKVVLKSKDDQVTVIGAGVTLHEALAAAELLKKEKINIRVLDPFTIKPLDRKLILDSARATKGRILTVEDHYYEGGIGEAVSSAVVGEPGITVTHLAVNRVPRSGKPAELLKMFGIDRDAIAQAVRGLITKA
